PubChem BioAssay AID1259425 – University of Nebraska Medical Center | 2018
Screen: 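Seek colon cancer weak points whose silencing resembles KSR1 loss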 (primary screen). Cells: HCT116 human colon cancer cells. Reagents: siRNA pool against human genes, 50 nM siRNA. Read-out: 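After 50 nM siRNA pool, branched-DNA assay measures six marker transcripts per well, minus blank, normalised to the geometric mean of two housekeeping transcripts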. Scale: BNIP3L mRNA: higher = more BNIP3L transcript after knockdown; NDRG1 mRNA: higher = more NDRG1 transcript after knockdown; BNIP3 mRNA: higher = more BNIP3 transcript after knockdown; ALDOC mRNA: higher = more ALDOC transcript after knockdown.
This is a random part of about 14,000 deposited reagents. Not all columns of the deposit are shown. Reagent sequences are not shown. Not given: the time to read-out.

BNIP3L mRNA, set 1	NDRG1 mRNA, set 1	BNIP3 mRNA, set 1	ALDOC mRNA, set 1	target
0.0824	0.0698	0.287	0.0296	NR2E1 (GeneID 7101)
0.164	0.228	0.237	0.0876	PYM1 (GeneID 84305)
0.114	0.148	0.517	0.0966	SEMA4G (GeneID 57715)
0.111	0.46	0.376	0.0127	ALDH3B1 (GeneID 221)
0.189	0.2	0.254	0.0388	ETAA1 (GeneID 54465)
0.0741	0.152	0.237	0.0111	NUBP1 (GeneID 4682)
0.0483	0.0955	0.211	0.0567	HMGN4 (GeneID 10473)
0.0452	0.323	0.242	0.0277	CD163 (GeneID 9332)
0.0889	0.183	0.384	0.0269	CDH13 (GeneID 1012)
0.0598	0.0739	0.213	0.0258	GPM6B (GeneID 2824)
0.153	0.111	0.289	0.0566	AMPD2 (GeneID 271)
0.0864	0.141	0.367	0.0422	PLCB1 (GeneID 23236)
0.224	0.427	0.358	0.0331	OR1E1 (GeneID 8387)
0.175	0.253	0.308	0.0157	NACC1 (GeneID 112939)
0.256	0.56	0.741	0.0809	SEC23B (GeneID 10483)
0.129	0.263	0.363	0.0249	PCDHGC3 (GeneID 5098)
0.0692	0.175	0.492	0.0216	CLSTN2 (GeneID 64084)
0.104	0.103	0.262	0.0186	GNAI2 (GeneID 2771)
0.111	0.0728	0.158	0.0285	LRIG2 (GeneID 9860)
0.059	0.554	0.3	0.0323	MOB3B (GeneID 79817)
0.137	0.159	0.209	0.0249	TAFAZZIN (GeneID 6901)
0.0369	0.392	0.401	0.0116	PMVK (GeneID 10654)
0.0973	0.308	0.335	0.0748	AASDHPPT (GeneID 60496)
0.0547	0.158	0.184	0.00991	NOL3 (GeneID 8996)
0.112	0.155	0.233	0.0316	GSDMD (GeneID 79792)
0.162	0.241	0.414	0.0424	NPLOC4 (GeneID 55666)
0.144	0.136	0.255	0.0429	BMP15 (GeneID 9210)
0.0748	0.177	0.31	0.0067	RASGRP2 (GeneID 10235)
0.186	0.137	0.247	0.0714	VPS25 (GeneID 84313)
0.148	0.235	0.252	0.0695	POLDIP3 (GeneID 84271)
0.238	0.0662	0.295	0.0122	AIM2 (GeneID 9447)
0.214	0.116	0.642	0.0315	CLDN17 (GeneID 26285)
0.0654	0.157	0.246	0.0805	ACSL1 (GeneID 2180)
0.0637	0.146	0.226	0.0281	HSD17B7 (GeneID 51478)
0.117	0.137	0.29	0.0246	PITPNB (GeneID 23760)
0.115	0.0949	0.215	0.0496	ARFGAP2 (GeneID 84364)
0.0876	0.128	0.23	0.0399	ENGASE (GeneID 64772)
0.144	0.166	0.399	0.0338	SCN8A (GeneID 6334)
0.0975	0.168	0.339	0.0388	DAP (GeneID 1611)
0.0669	0.12	0.335	0.0176	CLDN4 (GeneID 1364)
0.135	0.236	0.34	0.0142	PDS5B (GeneID 23047)
0.0707	0.278	0.265	0.0169	PPP6C (GeneID 5537)
0.119	0.0747	0.398	0.0153	EPHA8 (GeneID 2046)
0.0687	0.164	0.207	0.0085	DLAT (GeneID 1737)
0.251	0.225	0.229	0.0658	DNAI7 (GeneID 55259)
0.0896	0.708	0.311	0.0291	HILPDA (GeneID 29923)
0.168	0.131	0.445	0.0283	HS1BP3 (GeneID 64342)
0.538	1.54	0.774	0.0586	PEX1 (GeneID 5189)
0.193	0.631	0.695	-0.0151	ADAMTS2 (GeneID 9509)
0.21	0.234	0.29	0.00691	MYBL2 (GeneID 4605)

Sorted by “ALDOC mRNA, set 1” (descending): some entries from above.
BNIP3L mRNA, set 1	NDRG1 mRNA, set 1	BNIP3 mRNA, set 1	ALDOC mRNA, set 1	target
0.256	0.56	0.741	0.0809	SEC23B (GeneID 10483)
0.059	0.554	0.3	0.0323	MOB3B (GeneID 79817)
0.111	0.0728	0.158	0.0285	LRIG2 (GeneID 9860)
0.129	0.263	0.363	0.0249	PCDHGC3 (GeneID 5098)
0.137	0.159	0.209	0.0249	TAFAZZIN (GeneID 6901)
0.0692	0.175	0.492	0.0216	CLSTN2 (GeneID 64084)
0.104	0.103	0.262	0.0186	GNAI2 (GeneID 2771)
0.0369	0.392	0.401	0.0116	PMVK (GeneID 10654)
